# Source: PubChem BioAssay AID298 (DTP/NCI, 2004)
# The list is a part of this screen's results and no random one: it gathers tests that were run many times, whatever their T/C, doses with no T/C, and many T/C values between a quarter and a half above the control. Further doses and runs are listed elsewhere. T/C is the treated group as % of the vehicle group. Schedule codes are those of the source, read here as Q, the interval in days (D) or hours (H), X, the number of doses. Some entries were tested several times; their values stand side by side, smallest first. Some doses have a count of surviving animals in place of a T/C: the source holds a T/C of zero for them, seemingly a mark for toxic or unscored doses. Survivors were counted at the toxicity check, usually on the fifth day, unless a day is given; later deaths do not show. Some structures stand for samples that the source files as different forms (salt, stereo form or complex); doses refer to the form tested.
# System: MX-1 breast xenograft, intrarenal, nude mice, tumor weight
# Experiment: NCI In Vivo Anticancer Drug Screen. Data for tumor model Human Mammary Carcinoma MX-1 Xenograft (intrarenal inoculation) in NU/NU BALB/C (nude) mice
# Details: T/C endpoint: mean tumor weight change, higher T/C = larger tumour; for T/C: evaluated on day 11
# Outline: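 Compounds were given to mice carrying transplanted tumors, and tumor size or survival was measured. Each value is the treated-group measurement (T) divided by the vehicle-treated control-group measurement (C).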
# [1] = dose: 600.0 mg/kg/injection, schedule: Q04DX003 (ip), vehicle: saline with Tween-80
# [2] = dose: 75.0 mg/kg/injection, schedule: Q04DX003 (ip), vehicle: saline
# [3] = dose: 300.0 mg/kg/injection, schedule: Q04DX003 (ip), vehicle: saline
smiles,measurement,setting,value
[NH-]C(CCC(N)=O)C(=O)O.[NH-]C(CCC(N)=O)C(=O)O.[Zn+2] (stereo unspecified),survivor count,"dose: 150.0 mg/kg/injection, schedule: Q04DX003 (ip), vehicle: saline with Tween-80",0 of 6 on day 11
same,survivor count,"dose: 300.0 mg/kg/injection, schedule: Q04DX003 (ip), vehicle: saline with Tween-80",0 of 6 on day 11
same,survivor count,[1],0 of 6 on day 11
CCCCCCCC(=O)OCC(=O)[C@]1(O)Cc2c(O)c3c(c(O)c2[C@@H](OC2CC(N)C(O)C(C)O2)C1)C(=O)c1c(OC)cccc1C3=O (stereo partly specified),survivor count,"dose: 8.0 mg/kg/injection, schedule: Q01DX010 (ip), vehicle: suspension in saline",0 of 6 on day 11
same,survivor count,"dose: 16.0 mg/kg/injection, schedule: Q01DX010 (ip), vehicle: suspension in saline",0 of 6 on day 11
same,survivor count,"dose: 16.0 mg/kg/injection, schedule: Q01DX010 (sc), vehicle: saline",0 of 6 on day 11
same,survivor count,"dose: 16.0 mg/kg/injection, schedule: Q04DX003 (ip), vehicle: saline",0 of 6 on day 11
O=c1n(CC2CO2)c(=O)n(CC2CO2)n1CC1CO1 (stereo unspecified),survivor count,"dose: 75.0 mg/kg/injection, schedule: Q04DX003 (sc), vehicle: suspension in saline",0 of 6 on day 11
COc1cccc2c1C(CO)N1C(C#N)C3CC(C(=O)O)C(C1C2)N3C (stereo unspecified),survivor count,"dose: 50.0 mg/kg/injection, schedule: Q01DX010 (ip), vehicle: saline",1 of 5 on day 11
O=C[C@@H](CO)O[C@H](C=O)c1c[nH]c(=O)[nH]c1=O,T/C,[2],"10, 14, 22, 31 % of control"
same,survivor count,"dose: 150.0 mg/kg/injection, schedule: Q04DX003 (ip), vehicle: saline",2 of 6 on day 11
same,survivor count,[3],0 of 6 on day 11
O=c1[nH]cc(F)c(=O)[nH]1,survivor count,[2],0 of 6 on day 11
same,survivor count,"dose: 112.0 mg/kg/injection, schedule: Q04DX003 (ip), vehicle: saline",0 of 6 on day 11
CCCCCCCCCCCCN1C(C)=CS/C1=C\C=C\c1scc(C)[n+]1CCCCCCCCCCCC,survivor count,"dose: 6.0 mg/kg/injection, schedule: Q04DX003 (ip), vehicle: saline with Tween-80",0 of 6 on day 11
same,survivor count,"dose: 12.5 mg/kg/injection, schedule: Q04DX003 (ip), vehicle: saline with Tween-80",0 of 6 on day 11
same,survivor count,"dose: 25.0 mg/kg/injection, schedule: Q04DX003 (ip), vehicle: saline with Tween-80",0 of 6 on day 11
same,survivor count,"dose: 50.0 mg/kg/injection, schedule: Q04DX003 (ip), vehicle: saline with Tween-80",0 of 6 on day 11
same,survivor count,"dose: 100.0 mg/kg/injection, schedule: Q04DX003 (ip), vehicle: saline with Tween-80",0 of 6 on day 11
CNC(=O)OCc1nc(SC)n(C)c1COC(=O)NC,survivor count,"dose: 200.0 mg/kg/injection, schedule: Q04DX003 (ip), vehicle: suspension in saline",0 of 6 on day 11 and 1 of 6 on day 11
same,survivor count,"dose: 230.0 mg/kg/injection, schedule: Q04DX003 (ip), vehicle: saline",0 of 6 on day 11
same,survivor count,"dose: 400.0 mg/kg/injection, schedule: Q04DX003 (ip), vehicle: suspension in saline",0 of 6 on day 11
C[CH2][Sn]([Cl])([CH2]C)[c]1cc[c]([Sn]([Cl])([CH2]C)[CH2]C)cc1,survivor count,"dose: 2.0 mg/kg/injection, schedule: Q04DX003 (ip), vehicle: Klucel (hydroxypropylcellulose) (HPC)",0 of 6 on day 11
C=CC1(C)CC(=O)C2(O)C(C)(O1)C(OC(C)=O)C(O)C1C(C)(C)CCC(O)C12C (stereo unspecified),T/C,"dose: 4.0 mg/kg/injection, schedule: Q04DX003 (ip), vehicle: DMSO",143 % of control
same,T/C,"dose: 32.0 mg/kg/injection, schedule: Q04DX003 (ip), vehicle: DMSO",130 and 131 % of control
same,survivor count,"dose: 128.0 mg/kg/injection, schedule: Q04DX003 (ip), vehicle: DMSO",0 of 6 on day 11
COc1ccc(C[C@@H]2NC[C@@H](O)[C@@H]2OC(C)=O)cc1,survivor count,[1],0 of 6 on day 11
same,survivor count,"dose: 1200.0 mg/kg/injection, schedule: Q04DX003 (ip), vehicle: saline with Tween-80",0 of 6 on day 11
O=c1n(CC2CO2)c(=O)n(CC2CO2)c(=O)n1CC1CO1 (stereo unspecified),survivor count,"dose: 50.0 mg/kg/injection, schedule: Q01DX010 (sc), vehicle: saline",1 of 3 on day 11
same,survivor count,"dose: 100.0 mg/kg/injection, schedule: Q01DX010 (sc), vehicle: saline",0 of 3 on day 11
same,survivor count,"dose: 100.0 mg/kg/injection, schedule: Q04DX003 (sc), vehicle: suspension in saline",0 of 6 on day 11
same,survivor count,"dose: 200.0 mg/kg/injection, schedule: Q01DX010 (sc), vehicle: saline",0 of 2 on day 11
same,survivor count,"dose: 200.0 mg/kg/injection, schedule: Q04DX003 (sc), vehicle: suspension in saline",0 of 6 on day 11
O=P1(NCCCl)OCCCN1CCCl (stereo unspecified),survivor count,"dose: 75.0 mg/kg/injection, schedule: Q04DX003 (sc), vehicle: saline",3 of 6 on day 11
same,survivor count,"dose: 300.0 mg/kg/injection, schedule: Q04DX003 (sc), vehicle: saline",0 of 6 on day 11
same,survivor count,"dose: 600.0 mg/kg/injection, schedule: Q04DX003 (sc), vehicle: saline",0 of 6 on day 11
Nc1ccn([C@@H](C=O)C[C@@H](C=O)CO)c(=O)n1,survivor count,[3],2 of 6 on day 11
same,survivor count,"dose: 600.0 mg/kg/injection, schedule: Q04DX003 (ip), vehicle: saline",0 of 6 on day 11
CN1COc2c(n(C)c(=O)[nH]c2=O)C1,T/C,"dose: 100.0 mg/kg/injection, schedule: Q04DX003 (ip), vehicle: saline",128 % of control
CN1C2CCC1C(Br)C(=O)C2 (stereo unspecified),survivor count,"dose: 400.0 mg/kg/injection, schedule: Q04DX003 (ip), vehicle: saline",0 of 6 on day 11
same,survivor count,"dose: 800.0 mg/kg/injection, schedule: Q04DX003 (ip), vehicle: saline",0 of 6 on day 11
Cc1cc(O)c2c(c1O)C(=O)C13C(=C2O)C(=O)C2C(O)C1C1C(O)C3C(=O)C3=C(O)c4c(O)cc(C)c(O)c4C(=O)C321 (stereo unspecified),T/C,"dose: 3.12 mg/kg/injection, schedule: Q04DX003 (ip), vehicle: saline with Tween-80",129 % of control
same,T/C,"dose: 6.25 mg/kg/injection, schedule: Q04DX003 (ip), vehicle: saline with Tween-80",133 % of control
CCN(CC)CCn1[nH]c2c3ccc(=O)cc3sc3c(NCCN)ccc1c32,survivor count,"dose: 25.0 mg/kg/injection, schedule: Q04DX003 (ip), vehicle: water",0 of 6 on day 11
same,survivor count,"dose: 50.0 mg/kg/injection, schedule: Q04DX003 (ip), vehicle: water",0 of 6 on day 11
CC(=O)O[C@H]1C(=O)[C@@]2(C)C(C(OC(=O)c3ccccc3)[C@]3(O)C[C@H](OC(=O)C(OC(=O)CN(C)C)C(NC(=O)c4ccccc4)c4ccccc4)C(C)=C1C3(C)C)C1(OC(C)=O)COC1C[C@@H]2O (stereo partly specified),survivor count,"dose: 30.0 mg/kg/injection, schedule: Q01DX009 (ip), vehicle: water",1 of 6 on day 11
O=C(/C=C/c1cccnc1)/C=C/c1cccnc1,T/C,"dose: 12.5 mg/kg/injection, schedule: Q04DX003 (ip), vehicle: Klucel (hydroxypropylcellulose) (HPC)",138 % of control
same,T/C,"dose: 25.0 mg/kg/injection, schedule: Q04DX003 (ip), vehicle: Klucel (hydroxypropylcellulose) (HPC)",140 % of control
same,survivor count,"dose: 100.0 mg/kg/injection, schedule: Q04DX003 (ip), vehicle: Klucel (hydroxypropylcellulose) (HPC)",2 of 6 on day 11
N#CC(=C1SCS1)[N+](=O)[O-],T/C,"dose: 24.0 mg/kg/injection, schedule: Q04DX003 (sc), vehicle: saline with Tween-80",137 % of control
same,T/C,"dose: 48.0 mg/kg/injection, schedule: Q04DX003 (sc), vehicle: saline with Tween-80",130 % of control
same,survivor count,"dose: 96.0 mg/kg/injection, schedule: Q04DX003 (sc), vehicle: saline with Tween-80",3 of 6 on day 11
same,survivor count,"dose: 192.0 mg/kg/injection, schedule: Q04DX003 (sc), vehicle: saline with Tween-80",0 of 6 on day 11
CC1(O)C=CC(=O)C=C1,survivor count,"dose: 100.0 mg/kg/injection, schedule: Q04DX003 (ip), vehicle: water",2 of 6 on day 11
same,survivor count,"dose: 200.0 mg/kg/injection, schedule: Q04DX003 (ip), vehicle: water",0 of 6 on day 11
CCC1OC(OC)C=CC1=O (stereo unspecified),survivor count,"dose: 150.0 mg/kg/injection, schedule: Q04DX003 (sc), vehicle: saline",0 of 6 on day 11
